Experimental data: article PMC11989569
No constants are given. Whether binding was seen depends on the method and setting. Binding seen in cells or lysates may run through a third protein. Some binding calls cover weakened binding; strength is not graded here.

Sequences of proteins named here, by UniProt entry; tags and fusion partners are left off. A change or cut given only in a name is not applied to a line headed by its entry.
UniProt Q5S007: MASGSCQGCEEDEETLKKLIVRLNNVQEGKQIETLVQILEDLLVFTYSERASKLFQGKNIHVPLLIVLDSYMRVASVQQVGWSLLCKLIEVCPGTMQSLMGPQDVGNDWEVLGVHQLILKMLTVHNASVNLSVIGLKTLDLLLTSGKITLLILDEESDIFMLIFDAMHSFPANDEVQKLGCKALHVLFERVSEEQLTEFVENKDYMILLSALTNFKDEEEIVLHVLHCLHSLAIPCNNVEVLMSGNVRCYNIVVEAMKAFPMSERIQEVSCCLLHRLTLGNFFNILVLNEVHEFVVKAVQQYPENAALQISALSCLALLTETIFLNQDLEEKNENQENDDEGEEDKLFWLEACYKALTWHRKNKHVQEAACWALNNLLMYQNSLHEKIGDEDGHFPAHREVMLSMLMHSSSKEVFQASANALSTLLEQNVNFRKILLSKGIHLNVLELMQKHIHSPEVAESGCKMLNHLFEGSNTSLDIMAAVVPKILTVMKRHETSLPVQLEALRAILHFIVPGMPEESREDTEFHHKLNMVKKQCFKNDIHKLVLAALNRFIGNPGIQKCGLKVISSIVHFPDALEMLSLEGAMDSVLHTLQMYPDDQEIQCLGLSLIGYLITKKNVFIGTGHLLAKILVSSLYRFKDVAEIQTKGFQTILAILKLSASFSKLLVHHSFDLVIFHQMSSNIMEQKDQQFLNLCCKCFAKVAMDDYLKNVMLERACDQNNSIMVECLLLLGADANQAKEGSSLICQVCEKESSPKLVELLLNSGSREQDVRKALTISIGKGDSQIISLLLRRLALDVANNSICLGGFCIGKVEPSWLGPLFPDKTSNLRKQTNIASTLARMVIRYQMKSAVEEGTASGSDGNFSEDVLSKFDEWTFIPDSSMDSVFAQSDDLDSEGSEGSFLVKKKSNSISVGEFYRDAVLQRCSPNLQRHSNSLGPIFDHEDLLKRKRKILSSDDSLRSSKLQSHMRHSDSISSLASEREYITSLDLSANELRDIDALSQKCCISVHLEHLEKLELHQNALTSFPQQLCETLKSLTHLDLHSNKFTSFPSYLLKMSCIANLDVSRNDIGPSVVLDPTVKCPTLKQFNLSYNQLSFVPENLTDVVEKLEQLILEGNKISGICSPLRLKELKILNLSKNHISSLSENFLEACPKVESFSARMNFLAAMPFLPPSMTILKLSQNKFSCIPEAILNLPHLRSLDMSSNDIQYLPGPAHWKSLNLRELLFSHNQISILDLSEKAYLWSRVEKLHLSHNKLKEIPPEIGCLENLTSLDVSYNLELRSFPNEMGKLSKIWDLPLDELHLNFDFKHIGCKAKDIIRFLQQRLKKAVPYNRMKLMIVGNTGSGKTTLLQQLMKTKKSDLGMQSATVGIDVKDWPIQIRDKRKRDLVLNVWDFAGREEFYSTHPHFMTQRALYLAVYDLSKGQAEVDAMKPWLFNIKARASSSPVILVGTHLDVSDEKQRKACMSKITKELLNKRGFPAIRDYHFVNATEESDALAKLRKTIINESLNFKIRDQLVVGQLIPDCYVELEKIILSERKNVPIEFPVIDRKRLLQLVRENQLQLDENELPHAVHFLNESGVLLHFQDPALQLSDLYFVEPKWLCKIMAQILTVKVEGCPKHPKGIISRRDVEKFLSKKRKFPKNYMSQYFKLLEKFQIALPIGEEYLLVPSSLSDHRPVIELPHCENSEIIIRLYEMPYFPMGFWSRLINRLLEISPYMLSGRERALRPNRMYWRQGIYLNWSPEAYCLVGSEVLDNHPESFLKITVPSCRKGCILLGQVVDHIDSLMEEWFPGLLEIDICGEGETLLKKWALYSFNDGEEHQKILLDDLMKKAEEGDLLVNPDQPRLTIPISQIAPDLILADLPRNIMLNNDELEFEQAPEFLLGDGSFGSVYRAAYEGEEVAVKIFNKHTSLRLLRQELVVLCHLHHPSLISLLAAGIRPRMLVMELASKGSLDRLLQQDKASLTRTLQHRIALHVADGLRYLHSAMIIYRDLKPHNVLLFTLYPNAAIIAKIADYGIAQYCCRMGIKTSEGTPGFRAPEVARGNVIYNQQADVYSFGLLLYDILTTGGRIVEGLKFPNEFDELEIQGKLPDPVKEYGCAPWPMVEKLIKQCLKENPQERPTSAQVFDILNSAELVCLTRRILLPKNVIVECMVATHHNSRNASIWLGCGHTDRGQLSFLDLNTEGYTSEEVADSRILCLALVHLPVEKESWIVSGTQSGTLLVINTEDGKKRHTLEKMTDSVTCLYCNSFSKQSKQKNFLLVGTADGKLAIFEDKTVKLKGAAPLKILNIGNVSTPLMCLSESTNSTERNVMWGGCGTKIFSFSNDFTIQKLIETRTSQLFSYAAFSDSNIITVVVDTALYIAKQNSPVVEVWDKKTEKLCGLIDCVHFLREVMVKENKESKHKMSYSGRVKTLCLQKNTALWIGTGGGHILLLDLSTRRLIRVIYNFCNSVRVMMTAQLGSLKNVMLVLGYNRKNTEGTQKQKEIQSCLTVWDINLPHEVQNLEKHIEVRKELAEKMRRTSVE
UniProt P27732: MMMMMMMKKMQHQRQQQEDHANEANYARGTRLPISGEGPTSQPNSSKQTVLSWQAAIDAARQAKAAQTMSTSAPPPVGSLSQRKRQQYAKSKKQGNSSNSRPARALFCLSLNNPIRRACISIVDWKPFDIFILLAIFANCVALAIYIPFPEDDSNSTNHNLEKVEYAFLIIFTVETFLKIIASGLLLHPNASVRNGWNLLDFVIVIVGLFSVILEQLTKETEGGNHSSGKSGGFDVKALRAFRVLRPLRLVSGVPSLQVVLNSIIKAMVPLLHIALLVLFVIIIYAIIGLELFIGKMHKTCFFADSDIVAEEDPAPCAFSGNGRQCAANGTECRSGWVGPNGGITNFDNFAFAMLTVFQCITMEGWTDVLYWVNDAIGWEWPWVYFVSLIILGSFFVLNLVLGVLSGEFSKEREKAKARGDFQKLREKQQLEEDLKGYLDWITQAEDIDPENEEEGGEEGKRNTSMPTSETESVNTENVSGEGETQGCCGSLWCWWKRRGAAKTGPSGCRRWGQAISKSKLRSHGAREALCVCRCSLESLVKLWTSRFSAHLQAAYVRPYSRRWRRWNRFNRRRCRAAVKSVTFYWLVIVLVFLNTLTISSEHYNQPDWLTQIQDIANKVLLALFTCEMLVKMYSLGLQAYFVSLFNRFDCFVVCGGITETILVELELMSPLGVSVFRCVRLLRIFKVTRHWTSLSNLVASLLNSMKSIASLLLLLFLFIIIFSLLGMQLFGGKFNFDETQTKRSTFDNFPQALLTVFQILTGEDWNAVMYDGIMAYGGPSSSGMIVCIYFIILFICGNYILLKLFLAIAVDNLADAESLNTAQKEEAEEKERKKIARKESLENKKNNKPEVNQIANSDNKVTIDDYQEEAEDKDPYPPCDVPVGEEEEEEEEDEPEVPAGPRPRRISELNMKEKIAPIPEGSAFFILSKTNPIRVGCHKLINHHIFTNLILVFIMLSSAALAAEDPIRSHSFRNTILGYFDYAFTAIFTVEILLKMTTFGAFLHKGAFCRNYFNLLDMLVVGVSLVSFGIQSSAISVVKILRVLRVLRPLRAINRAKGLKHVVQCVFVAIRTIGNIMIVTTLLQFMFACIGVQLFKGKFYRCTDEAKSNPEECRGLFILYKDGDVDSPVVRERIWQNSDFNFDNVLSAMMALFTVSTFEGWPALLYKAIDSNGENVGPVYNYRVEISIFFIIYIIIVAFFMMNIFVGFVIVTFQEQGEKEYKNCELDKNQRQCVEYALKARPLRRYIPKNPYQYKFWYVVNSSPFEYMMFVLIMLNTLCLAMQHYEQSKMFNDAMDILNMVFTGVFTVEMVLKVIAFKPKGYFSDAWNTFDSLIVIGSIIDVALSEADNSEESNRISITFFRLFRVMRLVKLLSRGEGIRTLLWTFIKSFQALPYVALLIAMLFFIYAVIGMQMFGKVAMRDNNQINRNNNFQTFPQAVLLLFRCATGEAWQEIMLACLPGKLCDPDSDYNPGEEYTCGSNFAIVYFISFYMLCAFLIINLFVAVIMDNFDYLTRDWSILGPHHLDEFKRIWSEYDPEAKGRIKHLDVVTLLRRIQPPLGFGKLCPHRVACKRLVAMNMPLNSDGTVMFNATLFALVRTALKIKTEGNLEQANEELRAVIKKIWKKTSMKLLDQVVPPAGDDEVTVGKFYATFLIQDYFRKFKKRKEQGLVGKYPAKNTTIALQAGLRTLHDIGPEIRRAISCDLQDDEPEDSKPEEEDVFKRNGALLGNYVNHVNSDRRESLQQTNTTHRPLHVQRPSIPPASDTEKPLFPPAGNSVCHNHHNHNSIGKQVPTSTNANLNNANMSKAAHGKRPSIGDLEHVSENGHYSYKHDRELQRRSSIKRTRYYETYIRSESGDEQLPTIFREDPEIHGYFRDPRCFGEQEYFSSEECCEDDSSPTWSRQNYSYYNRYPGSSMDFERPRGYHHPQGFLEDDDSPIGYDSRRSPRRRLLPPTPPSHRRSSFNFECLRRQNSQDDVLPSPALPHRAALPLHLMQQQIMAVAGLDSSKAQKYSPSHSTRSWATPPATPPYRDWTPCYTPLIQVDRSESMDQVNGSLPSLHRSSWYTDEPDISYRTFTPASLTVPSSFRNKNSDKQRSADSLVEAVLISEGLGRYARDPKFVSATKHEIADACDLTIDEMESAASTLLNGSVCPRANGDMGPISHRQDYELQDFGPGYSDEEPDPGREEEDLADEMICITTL

Columns and labels:
[1] = target: Leucine-rich repeat kinase 2, wild type, fused to GFP (UniProt Q5S007); test: co-IP; lysates of HEK-293 cells transiently transfected with GFP-fused LRRK2 (WT or G2019S) and channel subunits; immunoprecipitation with anti-GFP antibodies (2.5 ug, overnight at 4 °C); lysis buffer 50 mM Tris-HCl pH 8.0, 150 mM NaCl, 1% Triton; Western blot with anti-CaV1.3α1 and anti-CaVβ3; anti-EspC as irrelevant control antibody
[2] = target: Leucine-rich repeat kinase 2 variant G2019S, fused to GFP (UniProt Q5S007); test: as above

Row | Substance | binding [1] | binding [2]
1 | L-type calcium channel pore-forming subunit CaV1.3α1 (from UniProt P27732 1-2203) | no binding | no binding
2 | Voltage-gated calcium channel auxiliary subunit CaVβ3 (from UniProt P54287 1-484) | binds | binds
